In paper PMC6017705, “Discovery of N-(Naphtho[1,2-b]Furan-5-Yl) Benzenesulfonamides as Novel Selective Inhibitors of Triple-Negative Breast Cancer (TNBC)” (Molecules : A Journal of Synthetic Chemistry and Natural …, 2018) one finds IC50 data, which are given here for one compound.

SMILES strings stand for the structures.

What all share (format): cell-based
The subject of one assay is MDA-MB-453. Put plainly: Cell viability assay (CCK-8), MDA-MB-453. To be noted: Homo sapiens, TNBC cell line, CCK-8, 72 h, 0.156 to 40 μM. The method, then: (§1) Four human TNBC cell lines (MDA-MB-231, MDA-MB-453, SUM-159, and BT-20), a non-TNBC breast cancer cell line (MCF-7) and a normal mammary epithelial cell line (MCF-10A) were cultured with DMEM (phenol free) supplemented with 2.5% CS-FBS and 1% L-Glu. 1.2 × 10^3 of cells were seeded into 384-well microplates and maintained for 24 h in an incubator at 37 °C in a 5% CO2, saturated humidified atmosphere. Different compounds were added into cells with 9 concentrations from 0.156 to 40 μM for 72 h. […] Then CCK-8 solution was added into cells and incubated for another 4 h. Absorbance was measured with a Microplate Reader at 450/600 nm. The IC50 values of the compounds on TNBC cell lines were derived using GraphPad Prism 5.0 (GraphPad Software, Inc., La Jolla, CA, USA).

In another assay the test system is BT-20. Kind of assay: Cell viability assay (CCK-8), BT-20. The settings on record: Homo sapiens, TNBC cell line, CCK-8, 72 h, 0.156 to 40 μM. The method, then: as §1
The next assay deals with MCF-7. Kind of assay: Cell viability assay (CCK-8), MCF-7. To be noted: Homo sapiens, MCF7, 72 h, non-TNBC breast cancer cell line; CCK-8, 72 h. The protocol:
as §1, with “Different compounds were added into cells with 9 concentrations from 0.156 to 40 μM for 72 h.” left out

Another assay relates to MCF-10A. Put plainly: Cell viability assay (CCK-8), MCF-10A. The settings on record: Homo sapiens, normal mammary epithelial cell line, CCK-8, 72 h. The protocol: as §1
A further assay has as its system MDA-MB-231. Put plainly: Cell viability assay (CCK-8), MDA-MB-231. The settings on record: Homo sapiens, MDA-MB-231, 72 h, TNBC cell line; CCK-8, 72 h, 0.156 to 40 μM. The protocol:
as §1, with “Different compounds were added into cells with 9 concentrations from 0.156 to 40 μM for 72 h.” left out

Broadly, the IC50 is the midpoint of a concentration-inhibition curve. A lower IC50 goes with greater potency in that assay. As for `CC/C(=C(\c1ccccc1)c1ccc(OCCN(C)C)cc1)c1ccccc1` [Tamoxifen, reference compound], the IC50 with MDA-MB-453 is 3.64 µM; in the assay with BT-20 it was 8.54 µM; with MCF-7, 9.08 µM; with MCF-10A, above 40 µM; with MDA-MB-231, 2.03 µM.
